Source: publication PMC3493543
These are yes or no findings as the source states them, for the method shown. Some entries that bind do so weakly or less than the wild type. Tags and fused reporters may be left off the sequences shown.

Molecular target: T1, full-length human GTF2IRD1 1α1 isoform fused to the GAL4 DNA-binding domain (pGBKT7-GTF2IRD1) (human) (UniProt Q9UHL9)
T1 sequence: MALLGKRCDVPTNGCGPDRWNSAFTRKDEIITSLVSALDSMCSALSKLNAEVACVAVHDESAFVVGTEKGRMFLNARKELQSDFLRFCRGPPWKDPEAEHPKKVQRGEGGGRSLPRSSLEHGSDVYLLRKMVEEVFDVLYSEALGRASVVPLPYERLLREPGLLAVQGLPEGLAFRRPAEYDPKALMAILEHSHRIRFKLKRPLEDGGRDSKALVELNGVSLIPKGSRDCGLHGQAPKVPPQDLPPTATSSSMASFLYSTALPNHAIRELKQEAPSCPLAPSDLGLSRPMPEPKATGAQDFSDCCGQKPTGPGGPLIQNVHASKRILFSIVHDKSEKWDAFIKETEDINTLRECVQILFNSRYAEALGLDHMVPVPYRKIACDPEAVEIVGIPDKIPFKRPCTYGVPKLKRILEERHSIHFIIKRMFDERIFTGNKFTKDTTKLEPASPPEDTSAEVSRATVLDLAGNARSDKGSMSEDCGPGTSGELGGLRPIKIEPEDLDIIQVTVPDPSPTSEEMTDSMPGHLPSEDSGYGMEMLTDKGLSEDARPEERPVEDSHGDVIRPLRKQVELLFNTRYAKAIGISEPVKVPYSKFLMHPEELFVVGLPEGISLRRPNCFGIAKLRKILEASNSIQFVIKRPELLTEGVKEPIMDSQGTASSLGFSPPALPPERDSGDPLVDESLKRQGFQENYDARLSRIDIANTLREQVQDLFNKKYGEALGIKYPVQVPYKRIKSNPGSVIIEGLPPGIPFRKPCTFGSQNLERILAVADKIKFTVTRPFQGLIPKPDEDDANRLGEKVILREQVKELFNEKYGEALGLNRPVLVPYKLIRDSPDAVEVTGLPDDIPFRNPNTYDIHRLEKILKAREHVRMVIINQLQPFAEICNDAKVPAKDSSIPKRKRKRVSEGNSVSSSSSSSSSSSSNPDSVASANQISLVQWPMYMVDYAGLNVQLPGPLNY
Assay: two-hybrid; Matchmaker system; co-transformation of pGBKT7 bait and pGADT7 prey into S. cerevisiae AH109; double transformants from DDO plates re-spotted on QDO plates with x-α-galactosidase (HIS3, ADE2, MEL1 markers)

PIASxβ fused to the GAL4 activation domain (pGADT7-PIASxβ) (from UniProt Q8C5D8-1 1-621) (enzyme)
binding: binds
